Results are given in words; binding and its absence hold for the method and conditions named. In cells and extracts the contact can be indirect. Some entries that bind do so weakly or less than the wild type. Where a sequence is shown, tags or fusion partners need not be part of it.
Biological target: T1, ER degradation-enhancing α-mannosidase-like protein 1 (EDEM1), HA-tagged (mouse) (UniProt Q925U4)
T1 sequence: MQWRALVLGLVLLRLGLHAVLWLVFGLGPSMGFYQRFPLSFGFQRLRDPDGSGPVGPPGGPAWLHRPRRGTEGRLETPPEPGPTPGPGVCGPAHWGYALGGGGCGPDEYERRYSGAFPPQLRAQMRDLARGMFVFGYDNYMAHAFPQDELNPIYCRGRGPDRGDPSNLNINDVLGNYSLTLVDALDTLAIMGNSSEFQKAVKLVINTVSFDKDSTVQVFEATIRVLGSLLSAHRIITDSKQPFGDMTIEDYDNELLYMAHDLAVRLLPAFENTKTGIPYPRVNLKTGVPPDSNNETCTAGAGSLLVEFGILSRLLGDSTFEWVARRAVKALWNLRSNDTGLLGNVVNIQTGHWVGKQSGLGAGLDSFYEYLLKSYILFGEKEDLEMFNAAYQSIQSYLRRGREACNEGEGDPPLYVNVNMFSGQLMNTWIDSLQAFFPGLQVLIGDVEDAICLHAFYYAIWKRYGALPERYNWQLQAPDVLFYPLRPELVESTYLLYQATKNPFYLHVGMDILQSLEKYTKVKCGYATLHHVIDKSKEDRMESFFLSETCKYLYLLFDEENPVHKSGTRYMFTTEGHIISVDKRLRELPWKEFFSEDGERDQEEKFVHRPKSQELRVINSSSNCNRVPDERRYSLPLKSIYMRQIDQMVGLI
Experiment: co-IP; HEK293 cells cotransfected with APP695 and EDEM1-HA, lysed 72 h after transfection (0.1 M NaCl, 10 mM Na2HPO4, 1 mM EDTA, 1% Triton X-100, pH 7.4), sonicated; precipitated 1 h at 4 °C on protein G Dynabeads (anti-HA beads and APP blot by the legend of Figure 9; anti-APP beads and anti-HA blot by the methods); washed 3 times with HBS pH 6.8, 0.1% Tween 20

amyloid-β precursor protein, isoform APP695 (from UniProt P05067-4 18-695)
binding: binds

— publication PMC8745108
